According to article PMC8907713:
No constants are given. Whether binding was seen depends on the method and setting. Binding seen in cells or lysates may run through a third protein.

Sequences of proteins named here, by UniProt entry; tags and fusion partners are left off. Residues count along the entry.
UniProt Q8S926, residues 1-118: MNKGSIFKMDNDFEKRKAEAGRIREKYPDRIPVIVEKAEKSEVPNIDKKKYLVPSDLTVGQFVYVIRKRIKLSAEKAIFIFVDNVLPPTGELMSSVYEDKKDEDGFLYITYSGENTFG

Key:
[1] = biological target: RHD3(ΔAIM1) in the 3-in-1 BiFC vector (Arabidopsis) (UniProt P93042); experiment: split reporter; 3-in-1 BiFC vector, agroinfiltrated N. benthamiana leaves (OD600 = 0.01), confocal images 72 h later; ER marked by mCherry-HDEL
[2] = biological target: T1, RHD3 in the 3-in-1 BiFC vector (Arabidopsis) (UniProt P93042); experiment: as above
T1 sequence: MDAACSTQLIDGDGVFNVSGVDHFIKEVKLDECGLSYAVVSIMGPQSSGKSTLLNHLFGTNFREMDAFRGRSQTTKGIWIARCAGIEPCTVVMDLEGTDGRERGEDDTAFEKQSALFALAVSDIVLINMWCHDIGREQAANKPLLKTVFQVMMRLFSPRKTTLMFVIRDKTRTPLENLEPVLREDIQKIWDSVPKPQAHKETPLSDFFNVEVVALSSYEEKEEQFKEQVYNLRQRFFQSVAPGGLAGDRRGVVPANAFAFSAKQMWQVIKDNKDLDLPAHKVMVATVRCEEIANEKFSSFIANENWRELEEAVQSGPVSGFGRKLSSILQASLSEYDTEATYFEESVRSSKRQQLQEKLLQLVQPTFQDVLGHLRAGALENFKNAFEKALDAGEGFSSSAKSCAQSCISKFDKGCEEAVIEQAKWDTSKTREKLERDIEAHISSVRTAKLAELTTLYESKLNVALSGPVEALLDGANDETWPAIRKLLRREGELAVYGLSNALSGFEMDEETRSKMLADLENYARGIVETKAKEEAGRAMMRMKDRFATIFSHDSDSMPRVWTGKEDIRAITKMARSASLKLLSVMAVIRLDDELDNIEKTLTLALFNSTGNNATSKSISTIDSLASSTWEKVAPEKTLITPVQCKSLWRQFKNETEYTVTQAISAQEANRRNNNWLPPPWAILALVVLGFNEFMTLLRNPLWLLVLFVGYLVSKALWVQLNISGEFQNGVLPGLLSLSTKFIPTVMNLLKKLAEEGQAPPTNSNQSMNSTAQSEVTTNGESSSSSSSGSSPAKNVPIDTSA

Row | Substance | binding [1] | binding [2]
1 | ATG8e in the 3-in-1 BiFC vector (from UniProt Q8S926 1-118) | no binding | –
2 | p24 in the 3-in-1 BiFC vector | – | no binding
